For series [1], the system named is Ets family factors (NIH3T3 nuclear extract) (mouse). In words: EMSA. The conditions noted are these: protein in an extract; label: 32P. Background: A gel shift assay detects complexes by their altered migration in electrophoresis.
In the next series the target is T1, Tel (ETV6) (mouse) (UniProt P97360).
T1 sequence (looked up, limits assumed): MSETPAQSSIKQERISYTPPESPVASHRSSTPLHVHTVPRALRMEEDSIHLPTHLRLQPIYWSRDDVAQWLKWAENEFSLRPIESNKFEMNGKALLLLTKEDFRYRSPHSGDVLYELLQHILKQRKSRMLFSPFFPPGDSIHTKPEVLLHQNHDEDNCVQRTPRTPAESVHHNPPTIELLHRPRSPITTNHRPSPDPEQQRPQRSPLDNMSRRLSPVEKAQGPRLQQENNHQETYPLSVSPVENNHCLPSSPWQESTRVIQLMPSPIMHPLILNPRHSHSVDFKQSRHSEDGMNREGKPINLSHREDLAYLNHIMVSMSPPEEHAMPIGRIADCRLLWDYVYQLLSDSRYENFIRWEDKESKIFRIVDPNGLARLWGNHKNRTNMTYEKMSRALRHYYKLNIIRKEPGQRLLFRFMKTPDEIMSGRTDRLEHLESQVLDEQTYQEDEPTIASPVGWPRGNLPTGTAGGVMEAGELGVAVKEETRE
The series can be described thus: EMSA. The conditions noted are these: supershift with antibody; protein in an extract; protein details: endogenous in NIH3T3 nuclear extract; label: 32P.

The target of another series is T2, Fli-1 (mouse) (UniProt P26323).
T2 sequence (looked up, limits assumed): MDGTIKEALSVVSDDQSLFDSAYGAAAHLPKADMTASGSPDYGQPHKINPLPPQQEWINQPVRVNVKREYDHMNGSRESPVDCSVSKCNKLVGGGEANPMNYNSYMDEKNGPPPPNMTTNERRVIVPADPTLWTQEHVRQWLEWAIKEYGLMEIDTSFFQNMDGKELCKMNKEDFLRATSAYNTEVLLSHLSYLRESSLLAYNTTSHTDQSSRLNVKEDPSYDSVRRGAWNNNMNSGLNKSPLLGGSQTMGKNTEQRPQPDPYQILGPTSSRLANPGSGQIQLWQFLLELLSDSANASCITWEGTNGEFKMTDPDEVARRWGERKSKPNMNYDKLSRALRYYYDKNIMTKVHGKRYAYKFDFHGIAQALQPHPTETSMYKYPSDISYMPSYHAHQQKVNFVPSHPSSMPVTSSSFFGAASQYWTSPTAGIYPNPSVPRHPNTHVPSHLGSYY
In words: EMSA. The conditions noted are these: antibody gave interference effect; protein in an extract; protein details: endogenous in NIH3T3 nuclear extract; label: 32P.

For the next series, the target named is T3, GABPα (mouse) (UniProt Q00422).
T3 sequence (looked up, limits assumed): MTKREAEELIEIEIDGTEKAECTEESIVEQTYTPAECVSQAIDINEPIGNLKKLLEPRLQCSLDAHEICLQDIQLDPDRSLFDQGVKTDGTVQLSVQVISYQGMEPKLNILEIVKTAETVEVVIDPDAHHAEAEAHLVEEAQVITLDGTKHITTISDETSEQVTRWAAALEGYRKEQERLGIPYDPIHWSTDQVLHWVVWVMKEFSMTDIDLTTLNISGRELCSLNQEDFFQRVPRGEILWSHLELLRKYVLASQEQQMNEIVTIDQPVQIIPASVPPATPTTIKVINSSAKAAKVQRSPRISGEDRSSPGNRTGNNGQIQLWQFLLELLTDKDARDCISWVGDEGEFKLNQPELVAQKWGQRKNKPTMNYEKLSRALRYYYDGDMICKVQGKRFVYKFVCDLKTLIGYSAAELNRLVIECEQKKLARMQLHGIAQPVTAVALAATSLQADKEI
The series can be described thus: EMSA. The conditions noted are these: supershift with antibody; protein in an extract; protein details: endogenous in NIH3T3 nuclear extract; label: 32P.

Series [2] has as its system Ets family factors (NIH3T3 nuclear extract) (mouse). The series can be described thus: competition with a labelled probe. The conditions noted are these: single-nucleotide mutant does not compete; protein in an extract; variant of EBS WT (-85 to -70).

At least one result comes from cells or an extract, where the contact may be indirect. For some assays here: Protein sequences can lack the tags named with them. For some assays here: The exact form of at least one protein or probe is not confirmed. For some assays here: A negative result means that nothing was seen under these conditions.

“GCGCCGCCGGAAGTGA (double strand) [EBS WT (-85 to -70)]”: the binding result (in series [1]; with Tel (ETV6) (mouse); with Fli-1 (mouse); in the series with GABPα (mouse)) was “binds” each time.
On to “GCGCCGCCGTAAGTGA (double strand) [EBS MT (-85 to -70)]”, for which the binding result in series [2] is on record as “no binding”.

The values above are taken from patent US20080070298, “Promoter of Synoviolin Gene” (published 2008).
